Some of the results follow.

By UniProt entry, the sequences of proteins in these tests, tags left out. Where a name states a change or a piece, a line headed by the entry shows the natural chain unless it says otherwise.
UniProt P16989, whole entry, looked up: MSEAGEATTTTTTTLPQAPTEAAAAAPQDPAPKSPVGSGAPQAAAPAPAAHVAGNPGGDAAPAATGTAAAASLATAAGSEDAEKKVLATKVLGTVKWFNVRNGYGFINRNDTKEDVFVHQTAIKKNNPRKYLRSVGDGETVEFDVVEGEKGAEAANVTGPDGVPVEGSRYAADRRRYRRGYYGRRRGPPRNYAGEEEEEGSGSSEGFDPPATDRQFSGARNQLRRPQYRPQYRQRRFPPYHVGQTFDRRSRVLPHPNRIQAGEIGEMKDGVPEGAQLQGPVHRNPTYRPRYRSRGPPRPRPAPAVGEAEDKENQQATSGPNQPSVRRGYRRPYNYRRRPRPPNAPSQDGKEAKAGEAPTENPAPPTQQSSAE
UniProt Q9BW85: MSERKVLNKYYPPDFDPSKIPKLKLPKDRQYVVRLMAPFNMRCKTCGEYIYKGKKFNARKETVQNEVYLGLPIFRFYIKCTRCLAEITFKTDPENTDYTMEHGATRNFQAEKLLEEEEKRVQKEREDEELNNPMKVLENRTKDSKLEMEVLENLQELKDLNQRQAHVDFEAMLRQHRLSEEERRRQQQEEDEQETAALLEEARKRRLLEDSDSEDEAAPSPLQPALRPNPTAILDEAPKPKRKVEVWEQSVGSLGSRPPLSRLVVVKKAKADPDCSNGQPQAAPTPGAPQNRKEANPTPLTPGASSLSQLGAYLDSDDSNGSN
UniProt Q96TA2: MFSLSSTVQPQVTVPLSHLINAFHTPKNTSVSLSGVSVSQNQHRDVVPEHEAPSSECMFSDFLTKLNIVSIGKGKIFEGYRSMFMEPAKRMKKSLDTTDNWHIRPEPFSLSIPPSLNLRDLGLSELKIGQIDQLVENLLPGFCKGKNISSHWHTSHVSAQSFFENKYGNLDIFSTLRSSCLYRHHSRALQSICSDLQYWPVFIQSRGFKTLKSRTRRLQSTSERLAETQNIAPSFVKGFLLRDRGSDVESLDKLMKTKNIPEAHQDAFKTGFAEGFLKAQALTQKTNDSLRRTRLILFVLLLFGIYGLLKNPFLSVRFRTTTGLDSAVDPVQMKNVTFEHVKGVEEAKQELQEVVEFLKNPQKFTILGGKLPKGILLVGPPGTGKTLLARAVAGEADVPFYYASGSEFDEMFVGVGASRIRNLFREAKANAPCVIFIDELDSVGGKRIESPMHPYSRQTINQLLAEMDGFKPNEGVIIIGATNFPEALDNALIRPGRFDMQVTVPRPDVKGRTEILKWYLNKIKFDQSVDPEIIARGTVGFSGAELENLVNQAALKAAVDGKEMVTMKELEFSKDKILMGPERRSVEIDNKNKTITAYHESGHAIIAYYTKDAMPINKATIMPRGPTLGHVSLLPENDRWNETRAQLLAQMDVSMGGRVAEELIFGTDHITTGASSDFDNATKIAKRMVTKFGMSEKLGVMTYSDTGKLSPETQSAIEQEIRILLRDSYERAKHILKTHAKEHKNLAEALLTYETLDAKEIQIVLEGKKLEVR
UniProt Q6FIF0: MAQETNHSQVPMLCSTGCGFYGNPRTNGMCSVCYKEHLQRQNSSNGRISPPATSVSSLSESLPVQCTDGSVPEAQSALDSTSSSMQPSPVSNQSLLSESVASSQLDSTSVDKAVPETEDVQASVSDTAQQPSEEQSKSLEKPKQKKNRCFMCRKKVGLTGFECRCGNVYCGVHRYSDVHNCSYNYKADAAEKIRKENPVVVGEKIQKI
UniProt Q9NQH7: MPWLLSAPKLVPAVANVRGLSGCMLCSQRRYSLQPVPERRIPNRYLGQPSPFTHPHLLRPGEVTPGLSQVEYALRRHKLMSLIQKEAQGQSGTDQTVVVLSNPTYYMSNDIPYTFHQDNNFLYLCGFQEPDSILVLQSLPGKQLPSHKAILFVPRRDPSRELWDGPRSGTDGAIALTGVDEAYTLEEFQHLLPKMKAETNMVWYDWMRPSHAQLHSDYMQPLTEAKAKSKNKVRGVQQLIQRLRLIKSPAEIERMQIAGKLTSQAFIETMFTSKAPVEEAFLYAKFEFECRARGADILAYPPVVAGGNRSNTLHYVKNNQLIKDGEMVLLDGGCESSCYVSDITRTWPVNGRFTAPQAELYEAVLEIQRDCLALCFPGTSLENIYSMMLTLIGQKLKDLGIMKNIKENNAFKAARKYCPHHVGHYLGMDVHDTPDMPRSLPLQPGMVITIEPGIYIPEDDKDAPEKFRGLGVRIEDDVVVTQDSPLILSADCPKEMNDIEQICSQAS
UniProt O96006: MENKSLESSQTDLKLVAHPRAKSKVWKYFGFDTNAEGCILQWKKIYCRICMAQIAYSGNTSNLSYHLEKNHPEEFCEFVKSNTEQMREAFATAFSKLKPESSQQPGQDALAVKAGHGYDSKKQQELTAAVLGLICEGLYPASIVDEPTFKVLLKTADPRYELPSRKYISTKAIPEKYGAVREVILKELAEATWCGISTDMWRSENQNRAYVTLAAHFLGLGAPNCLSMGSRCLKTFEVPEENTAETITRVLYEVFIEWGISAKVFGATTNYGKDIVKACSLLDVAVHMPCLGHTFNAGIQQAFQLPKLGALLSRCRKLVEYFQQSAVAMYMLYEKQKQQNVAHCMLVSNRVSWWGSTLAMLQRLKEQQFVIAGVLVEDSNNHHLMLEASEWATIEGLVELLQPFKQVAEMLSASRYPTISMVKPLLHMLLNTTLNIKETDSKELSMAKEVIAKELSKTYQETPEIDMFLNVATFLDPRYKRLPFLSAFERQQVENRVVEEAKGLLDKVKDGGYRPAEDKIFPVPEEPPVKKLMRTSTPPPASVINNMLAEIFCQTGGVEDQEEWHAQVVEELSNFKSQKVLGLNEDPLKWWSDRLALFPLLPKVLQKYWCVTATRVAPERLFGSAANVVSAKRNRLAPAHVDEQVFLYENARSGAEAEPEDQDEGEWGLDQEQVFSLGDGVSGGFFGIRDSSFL
UniProt O43592: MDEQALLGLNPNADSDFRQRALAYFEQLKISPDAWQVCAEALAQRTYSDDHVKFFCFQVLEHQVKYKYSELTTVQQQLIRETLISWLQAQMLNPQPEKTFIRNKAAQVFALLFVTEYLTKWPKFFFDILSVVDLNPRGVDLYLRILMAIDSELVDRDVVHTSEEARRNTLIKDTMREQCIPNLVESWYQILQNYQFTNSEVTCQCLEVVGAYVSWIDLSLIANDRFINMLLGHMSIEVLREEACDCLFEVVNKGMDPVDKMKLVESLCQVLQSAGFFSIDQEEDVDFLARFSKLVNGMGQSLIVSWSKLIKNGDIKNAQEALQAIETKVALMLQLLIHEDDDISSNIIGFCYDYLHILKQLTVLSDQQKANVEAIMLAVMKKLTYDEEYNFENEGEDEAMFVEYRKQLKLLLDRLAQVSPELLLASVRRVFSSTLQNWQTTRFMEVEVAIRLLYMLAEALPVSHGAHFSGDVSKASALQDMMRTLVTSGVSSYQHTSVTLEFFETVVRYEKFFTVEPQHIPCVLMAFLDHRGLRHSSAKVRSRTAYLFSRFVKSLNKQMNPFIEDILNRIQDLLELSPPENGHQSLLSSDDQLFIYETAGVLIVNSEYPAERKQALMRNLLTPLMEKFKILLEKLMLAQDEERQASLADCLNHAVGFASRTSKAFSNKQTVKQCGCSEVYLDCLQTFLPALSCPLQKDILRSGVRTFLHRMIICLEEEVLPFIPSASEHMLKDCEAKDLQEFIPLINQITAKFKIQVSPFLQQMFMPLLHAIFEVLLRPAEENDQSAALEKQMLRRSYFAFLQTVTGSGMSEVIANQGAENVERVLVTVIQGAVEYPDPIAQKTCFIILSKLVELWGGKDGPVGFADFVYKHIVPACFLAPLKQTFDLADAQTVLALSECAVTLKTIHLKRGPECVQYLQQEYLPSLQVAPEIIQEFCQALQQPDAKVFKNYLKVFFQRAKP
UniProt P25490, whole entry, looked up: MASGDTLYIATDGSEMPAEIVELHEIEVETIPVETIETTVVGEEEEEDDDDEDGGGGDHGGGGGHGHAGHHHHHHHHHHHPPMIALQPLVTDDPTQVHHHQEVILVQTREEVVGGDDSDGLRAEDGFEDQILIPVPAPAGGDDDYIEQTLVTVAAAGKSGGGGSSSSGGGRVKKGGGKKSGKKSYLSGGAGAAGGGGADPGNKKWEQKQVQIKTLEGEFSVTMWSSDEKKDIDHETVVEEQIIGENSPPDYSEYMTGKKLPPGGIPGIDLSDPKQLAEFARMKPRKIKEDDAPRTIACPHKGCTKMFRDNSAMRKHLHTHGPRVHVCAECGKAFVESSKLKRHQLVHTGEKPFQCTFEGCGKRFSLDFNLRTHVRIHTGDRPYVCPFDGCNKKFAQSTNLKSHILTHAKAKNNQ
UniProt O15498: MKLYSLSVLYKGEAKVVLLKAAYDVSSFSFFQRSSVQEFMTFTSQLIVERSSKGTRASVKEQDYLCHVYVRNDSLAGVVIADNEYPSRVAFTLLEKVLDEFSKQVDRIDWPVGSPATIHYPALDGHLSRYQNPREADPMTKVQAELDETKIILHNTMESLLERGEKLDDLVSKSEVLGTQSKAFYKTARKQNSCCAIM
UniProt P49750: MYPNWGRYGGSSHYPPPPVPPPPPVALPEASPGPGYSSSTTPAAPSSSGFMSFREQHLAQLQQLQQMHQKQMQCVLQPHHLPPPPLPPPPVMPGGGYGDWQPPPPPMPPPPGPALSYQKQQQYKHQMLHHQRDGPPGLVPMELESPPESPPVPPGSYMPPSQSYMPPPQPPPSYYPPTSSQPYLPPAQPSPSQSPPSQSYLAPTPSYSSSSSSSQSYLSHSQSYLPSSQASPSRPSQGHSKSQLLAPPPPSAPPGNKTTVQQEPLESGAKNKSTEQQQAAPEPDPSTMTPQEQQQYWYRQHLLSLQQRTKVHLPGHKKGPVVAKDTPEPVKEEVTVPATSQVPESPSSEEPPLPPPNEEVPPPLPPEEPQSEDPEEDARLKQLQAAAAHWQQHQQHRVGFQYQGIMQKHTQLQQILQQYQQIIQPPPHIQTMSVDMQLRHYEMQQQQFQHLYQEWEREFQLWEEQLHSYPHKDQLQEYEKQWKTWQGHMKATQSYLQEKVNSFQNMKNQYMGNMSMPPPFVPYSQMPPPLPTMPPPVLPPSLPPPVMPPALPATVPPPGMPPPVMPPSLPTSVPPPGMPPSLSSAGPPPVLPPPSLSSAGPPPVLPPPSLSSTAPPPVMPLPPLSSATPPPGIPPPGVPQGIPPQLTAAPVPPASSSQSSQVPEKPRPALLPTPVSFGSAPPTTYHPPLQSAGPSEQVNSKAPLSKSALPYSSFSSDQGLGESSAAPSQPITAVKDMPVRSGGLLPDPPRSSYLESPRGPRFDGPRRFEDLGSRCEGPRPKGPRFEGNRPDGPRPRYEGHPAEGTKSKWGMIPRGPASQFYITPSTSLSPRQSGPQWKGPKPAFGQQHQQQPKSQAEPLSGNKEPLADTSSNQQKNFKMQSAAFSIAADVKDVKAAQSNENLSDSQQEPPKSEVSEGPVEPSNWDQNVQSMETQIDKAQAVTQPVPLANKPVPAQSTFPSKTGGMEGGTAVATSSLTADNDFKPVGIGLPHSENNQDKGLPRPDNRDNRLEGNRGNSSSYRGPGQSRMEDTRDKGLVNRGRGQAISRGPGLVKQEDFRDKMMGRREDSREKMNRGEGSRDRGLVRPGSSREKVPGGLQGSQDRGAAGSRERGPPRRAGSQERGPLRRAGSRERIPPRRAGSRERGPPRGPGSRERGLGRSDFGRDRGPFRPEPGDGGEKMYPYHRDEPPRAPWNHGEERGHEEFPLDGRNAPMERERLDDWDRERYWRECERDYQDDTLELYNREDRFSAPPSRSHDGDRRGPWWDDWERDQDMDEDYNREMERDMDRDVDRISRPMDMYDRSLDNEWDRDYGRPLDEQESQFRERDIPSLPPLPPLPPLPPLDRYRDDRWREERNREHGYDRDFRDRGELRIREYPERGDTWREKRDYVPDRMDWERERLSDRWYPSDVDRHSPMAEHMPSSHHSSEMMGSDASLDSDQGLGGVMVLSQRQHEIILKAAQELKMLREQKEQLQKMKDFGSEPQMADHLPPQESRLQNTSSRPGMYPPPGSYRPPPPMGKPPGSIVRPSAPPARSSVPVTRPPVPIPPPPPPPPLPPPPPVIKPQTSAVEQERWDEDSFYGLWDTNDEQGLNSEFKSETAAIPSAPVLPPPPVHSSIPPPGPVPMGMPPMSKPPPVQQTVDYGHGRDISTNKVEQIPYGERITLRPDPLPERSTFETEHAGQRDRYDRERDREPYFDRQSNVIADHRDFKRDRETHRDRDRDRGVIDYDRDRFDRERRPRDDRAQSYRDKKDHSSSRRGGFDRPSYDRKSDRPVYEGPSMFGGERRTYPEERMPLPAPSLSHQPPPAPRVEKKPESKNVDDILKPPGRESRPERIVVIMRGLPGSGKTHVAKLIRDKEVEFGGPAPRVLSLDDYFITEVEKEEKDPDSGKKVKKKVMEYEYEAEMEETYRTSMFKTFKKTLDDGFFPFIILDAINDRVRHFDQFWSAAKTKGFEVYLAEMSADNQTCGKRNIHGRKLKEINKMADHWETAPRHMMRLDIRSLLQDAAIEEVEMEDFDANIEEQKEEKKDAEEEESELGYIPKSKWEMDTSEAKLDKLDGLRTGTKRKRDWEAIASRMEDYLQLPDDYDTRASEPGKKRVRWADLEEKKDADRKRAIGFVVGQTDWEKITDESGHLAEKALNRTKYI

Compound in one assay: Cc1nc(Nc2ncc(C(=O)Nc3c(C)cccc3Cl)s2)cc(N2CCN(CCO)CC2)n1 [dasatinib]
The assay is described as follows: log2 fold change, soluble protein after heating vs DMSO (PISA); higher = thermal stabilisation; K562 lysate, 10 uM; active = over 0.2 and 3.5 SD of the protein, either way, in both replicates (recomputed). The essentials: (§1)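 Log-two fold change in thermal stability relative to solvent controls is reported from duplicates. For each sample, crude K562 extract from dounce-homogenised pellets in PBS pH 7.4 with 1 mM MgCl2, at 1 mg/mL protein, was treated with 10 μM compound for 30 min. Aliquots heated for 3 min across 48°C-58°C were pooled, brought to 0.5% NP-40 at 4°C and cleared at 21,000xg for 90 min. The supernatant was quantified by TMTpro 16plex LC-MS/MS with channel sums equalised.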
In the case of YBX3 (UniProt P16989), the log2 fold change was inactive: 0.008.

For the target ZBED8 (UniProt Q8IZ13), the log2 fold change was inactive: -0.041.

Regarding XPO7 (UniProt Q9UIA9), the log2 fold change is inactive: -0.006.

Turning to YIPF3 (UniProt Q9GZM5), the log2 fold change was inactive: 0.052.

As for XPO6 (UniProt Q96QU8), the log2 fold change was inactive: -0.008.

As to ZDHHC3 isoform 2 (UniProt Q9NYG2), the log2 fold change is inactive: -0.143.

Turning to ZFPM1 (UniProt Q8IX07), the log2 fold change was inactive: -0.087.

For the target YES1 (UniProt P07947), the log2 fold change is inactive: 0.154.

ZFAND2B (UniProt Q8WV99): the log2 fold change is inactive: 0.041.

As for XPO1 (UniProt O14980), the log2 fold change is inactive: -0.038.

Regarding ZCCHC3 (UniProt Q9NUD5), the log2 fold change is inactive: -0.025.

For YIPF5 isoform 3 (UniProt Q969M3), the log2 fold change is inactive: 0.009.

Consider ZC3H18 (UniProt E7ERS3), for which the log2 fold change is inactive: -0.019.

As to YBX3 isoform 2 (UniProt P16989), the log2 fold change is inactive: 0.026.

For ZC3H4 (UniProt Q9UPT8), the log2 fold change is inactive: 0.049.

For YJU2 (UniProt Q9BW85), the log2 fold change was inactive: 0.024.

As for ZC3H15 (UniProt Q8WU90), the log2 fold change is inactive: 0.031.

Turning to YIPF6 (UniProt Q96EC8), the log2 fold change is inactive: -0.009.

XRCC1 (UniProt P18887): the log2 fold change was inactive: -0.026.

As for ZFR (UniProt Q96KR1), the log2 fold change was inactive: 0.018.

In the case of YME1L1 (UniProt Q96TA2), the log2 fold change was inactive: 0.

On to YTHDC2 (UniProt Q9H6S0), for which the log2 fold change was inactive: -0.043.

Consider ZFAND6 (UniProt Q6FIF0), for which the log2 fold change was inactive: -0.006.

For ZER1 (UniProt Q7Z7L7), the log2 fold change was inactive: -0.133.

As for XPNPEP3 (UniProt Q9NQH7), the log2 fold change was inactive: -0.013.

As for ZBED1 (UniProt O96006), the log2 fold change was inactive: -0.047.

Take XPOT (UniProt O43592): the log2 fold change was inactive: -0.064.

In the case of YRDC (UniProt Q86U90), the log2 fold change was inactive: 0.022.

Consider YY1 (UniProt P25490), for which the log2 fold change was inactive: -0.055.

Turning to ZGPAT (UniProt Q8N5A5), the log2 fold change is inactive: 0.005.

With XRCC6 (UniProt P12956), the log2 fold change was inactive: -0.008.

Consider YKT6 (UniProt O15498), for which the log2 fold change is inactive: 0.027.

In the case of YARS2 (UniProt Q9Y2Z4), the log2 fold change was inactive: -0.041.

In the case of ZC3H8 (UniProt Q8N5P1), the log2 fold change was inactive: 0.026.

With ZCCHC8 (UniProt Q6NZY4), the log2 fold change was inactive: 0.013.

Consider YLPM1 (UniProt P49750), for which the log2 fold change was inactive: 0.018.

For the target ZC3H7B (UniProt Q9UGR2), the log2 fold change is inactive: -0.057.

Turning to YIPF4 (UniProt Q9BSR8), the log2 fold change is inactive: 0.004.

With YDJC (UniProt A8MPS7), the log2 fold change is inactive: -0.1.

As to ZBTB21 (UniProt Q9ULJ3), the log2 fold change is inactive: 0.032.

Compound in a further assay: Cc1ncc(-c2ccnc(Nc3ccc(S(C)(=O)=O)cc3)n2)n1C(C)C
The description is as above. The gist of the method:
as §1
Turning to YBX3 (UniProt P16989), the log2 fold change was inactive: -0.02.

ZBED8 (UniProt Q8IZ13): the log2 fold change is inactive: -0.05.

XPO7 (UniProt Q9UIA9): the log2 fold change was inactive: -0.012.

On to YIPF3 (UniProt Q9GZM5), for which the log2 fold change is inactive: 0.007.

With XPO6 (UniProt Q96QU8), the log2 fold change is inactive: -0.054.

Consider ZDHHC3 isoform 2 (UniProt Q9NYG2), for which the log2 fold change is inactive: 0.067.

ZFPM1 (UniProt Q8IX07): the log2 fold change was inactive: 0.042.

On to YES1 (UniProt P07947), for which the log2 fold change is inactive: -0.104.

For ZFAND2B (UniProt Q8WV99), the log2 fold change is inactive: -0.019.

For XPO1 (UniProt O14980), the log2 fold change was inactive: -0.014.

Consider ZCCHC3 (UniProt Q9NUD5), for which the log2 fold change was inactive: -0.016.

YIPF5 isoform 3 (UniProt Q969M3): the log2 fold change was inactive: 0.042.

For the target ZC3H18 (UniProt E7ERS3), the log2 fold change was inactive: 0.013.

In the case of YBX3 isoform 2 (UniProt P16989), the log2 fold change is inactive: 0.108.

In the case of ZC3H4 (UniProt Q9UPT8), the log2 fold change is inactive: 0.009.

As to YJU2 (UniProt Q9BW85), the log2 fold change was inactive: -0.081.

With ZC3H15 (UniProt Q8WU90), the log2 fold change was inactive: 0.025.

Turning to YIPF6 (UniProt Q96EC8), the log2 fold change was inactive: -0.115.

With XRCC1 (UniProt P18887), the log2 fold change was inactive: -0.016.

Turning to ZFR (UniProt Q96KR1), the log2 fold change is inactive: 0.023.

Turning to YME1L1 (UniProt Q96TA2), the log2 fold change was inactive: 0.026.

As to YTHDC2 (UniProt Q9H6S0), the log2 fold change was inactive: 0.03.

For the target ZFAND6 (UniProt Q6FIF0), the log2 fold change is inactive: 0.017.

With ZER1 (UniProt Q7Z7L7), the log2 fold change was inactive: 0.034.

Take XPNPEP3 (UniProt Q9NQH7): the log2 fold change was inactive: 0.026.

With ZBED1 (UniProt O96006), the log2 fold change is inactive: 0.021.

Take XPOT (UniProt O43592): the log2 fold change was inactive: 0.

With YRDC (UniProt Q86U90), the log2 fold change is inactive: 0.018.

As to YY1 (UniProt P25490), the log2 fold change was inactive: -0.005.

For the target ZGPAT (UniProt Q8N5A5), the log2 fold change was inactive: -0.019.

As for XRCC6 (UniProt P12956), the log2 fold change is inactive: -0.007.

Consider YKT6 (UniProt O15498), for which the log2 fold change was inactive: -0.007.

Regarding YARS2 (UniProt Q9Y2Z4), the log2 fold change was inactive: 0.041.

Take ZC3H8 (UniProt Q8N5P1): the log2 fold change was inactive: -0.013.

In the case of ZCCHC8 (UniProt Q6NZY4), the log2 fold change was inactive: -0.024.

Take YLPM1 (UniProt P49750): the log2 fold change is active: -0.384.

Regarding ZC3H7B (UniProt Q9UGR2), the log2 fold change was inactive: -0.038.

In the case of YIPF4 (UniProt Q9BSR8), the log2 fold change was inactive: 0.095.

Turning to YDJC (UniProt A8MPS7), the log2 fold change was inactive: -0.044.

Turning to ZBTB21 (UniProt Q9ULJ3), the log2 fold change is inactive: -0.006.

These data come from the supplement of paper PMC10849652.
